Experimental data as given in US20190300589A1.
Results are given in words; binding and its absence hold for the method and conditions named. Some binding calls cover weakened binding; strength is not graded here.

Chains of the proteins cited; added tags and fusions are not shown. Lines headed by an entry give the natural chain unless they say otherwise; changes in a name come on top.
UniProt P01024: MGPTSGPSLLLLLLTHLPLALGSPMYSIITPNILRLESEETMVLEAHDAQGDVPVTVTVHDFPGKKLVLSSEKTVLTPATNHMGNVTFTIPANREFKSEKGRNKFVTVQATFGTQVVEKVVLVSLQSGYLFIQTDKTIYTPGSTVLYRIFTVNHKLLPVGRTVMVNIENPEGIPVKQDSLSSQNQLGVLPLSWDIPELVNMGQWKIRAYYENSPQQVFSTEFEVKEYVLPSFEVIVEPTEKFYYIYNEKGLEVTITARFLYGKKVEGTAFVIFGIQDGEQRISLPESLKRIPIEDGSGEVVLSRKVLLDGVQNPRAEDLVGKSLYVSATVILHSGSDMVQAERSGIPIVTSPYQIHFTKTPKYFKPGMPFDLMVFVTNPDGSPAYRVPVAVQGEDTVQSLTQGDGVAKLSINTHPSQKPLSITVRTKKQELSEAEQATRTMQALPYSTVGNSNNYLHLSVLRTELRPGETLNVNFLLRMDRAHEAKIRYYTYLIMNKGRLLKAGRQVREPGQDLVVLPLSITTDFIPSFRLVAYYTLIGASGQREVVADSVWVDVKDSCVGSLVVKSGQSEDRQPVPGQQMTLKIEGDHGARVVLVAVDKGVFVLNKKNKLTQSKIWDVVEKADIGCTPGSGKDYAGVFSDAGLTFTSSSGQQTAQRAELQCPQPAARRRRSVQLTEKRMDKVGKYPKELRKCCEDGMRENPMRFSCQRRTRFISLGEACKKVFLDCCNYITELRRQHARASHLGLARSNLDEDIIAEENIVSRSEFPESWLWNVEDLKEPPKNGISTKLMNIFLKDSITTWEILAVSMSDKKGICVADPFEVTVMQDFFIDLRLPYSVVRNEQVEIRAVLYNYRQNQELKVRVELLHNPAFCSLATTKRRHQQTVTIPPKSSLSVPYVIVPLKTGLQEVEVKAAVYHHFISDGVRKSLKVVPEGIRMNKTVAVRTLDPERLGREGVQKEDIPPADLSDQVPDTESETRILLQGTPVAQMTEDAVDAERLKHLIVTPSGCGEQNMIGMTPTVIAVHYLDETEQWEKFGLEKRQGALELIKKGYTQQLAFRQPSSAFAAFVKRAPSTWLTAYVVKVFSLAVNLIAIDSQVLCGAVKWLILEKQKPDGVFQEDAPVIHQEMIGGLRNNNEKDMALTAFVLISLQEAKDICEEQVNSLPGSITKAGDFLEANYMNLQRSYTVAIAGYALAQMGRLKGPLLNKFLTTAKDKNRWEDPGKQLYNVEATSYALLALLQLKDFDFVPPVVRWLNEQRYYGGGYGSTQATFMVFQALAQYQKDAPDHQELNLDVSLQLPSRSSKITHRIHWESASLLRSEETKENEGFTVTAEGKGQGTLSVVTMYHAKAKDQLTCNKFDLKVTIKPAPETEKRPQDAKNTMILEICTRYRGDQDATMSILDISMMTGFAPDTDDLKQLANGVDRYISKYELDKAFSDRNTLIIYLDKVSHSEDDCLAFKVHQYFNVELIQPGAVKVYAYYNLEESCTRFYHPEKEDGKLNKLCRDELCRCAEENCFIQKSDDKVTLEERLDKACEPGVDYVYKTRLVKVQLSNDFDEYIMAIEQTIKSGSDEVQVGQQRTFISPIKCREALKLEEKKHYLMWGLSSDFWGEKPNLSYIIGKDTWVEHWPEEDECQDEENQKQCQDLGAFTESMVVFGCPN
UniProt P08603: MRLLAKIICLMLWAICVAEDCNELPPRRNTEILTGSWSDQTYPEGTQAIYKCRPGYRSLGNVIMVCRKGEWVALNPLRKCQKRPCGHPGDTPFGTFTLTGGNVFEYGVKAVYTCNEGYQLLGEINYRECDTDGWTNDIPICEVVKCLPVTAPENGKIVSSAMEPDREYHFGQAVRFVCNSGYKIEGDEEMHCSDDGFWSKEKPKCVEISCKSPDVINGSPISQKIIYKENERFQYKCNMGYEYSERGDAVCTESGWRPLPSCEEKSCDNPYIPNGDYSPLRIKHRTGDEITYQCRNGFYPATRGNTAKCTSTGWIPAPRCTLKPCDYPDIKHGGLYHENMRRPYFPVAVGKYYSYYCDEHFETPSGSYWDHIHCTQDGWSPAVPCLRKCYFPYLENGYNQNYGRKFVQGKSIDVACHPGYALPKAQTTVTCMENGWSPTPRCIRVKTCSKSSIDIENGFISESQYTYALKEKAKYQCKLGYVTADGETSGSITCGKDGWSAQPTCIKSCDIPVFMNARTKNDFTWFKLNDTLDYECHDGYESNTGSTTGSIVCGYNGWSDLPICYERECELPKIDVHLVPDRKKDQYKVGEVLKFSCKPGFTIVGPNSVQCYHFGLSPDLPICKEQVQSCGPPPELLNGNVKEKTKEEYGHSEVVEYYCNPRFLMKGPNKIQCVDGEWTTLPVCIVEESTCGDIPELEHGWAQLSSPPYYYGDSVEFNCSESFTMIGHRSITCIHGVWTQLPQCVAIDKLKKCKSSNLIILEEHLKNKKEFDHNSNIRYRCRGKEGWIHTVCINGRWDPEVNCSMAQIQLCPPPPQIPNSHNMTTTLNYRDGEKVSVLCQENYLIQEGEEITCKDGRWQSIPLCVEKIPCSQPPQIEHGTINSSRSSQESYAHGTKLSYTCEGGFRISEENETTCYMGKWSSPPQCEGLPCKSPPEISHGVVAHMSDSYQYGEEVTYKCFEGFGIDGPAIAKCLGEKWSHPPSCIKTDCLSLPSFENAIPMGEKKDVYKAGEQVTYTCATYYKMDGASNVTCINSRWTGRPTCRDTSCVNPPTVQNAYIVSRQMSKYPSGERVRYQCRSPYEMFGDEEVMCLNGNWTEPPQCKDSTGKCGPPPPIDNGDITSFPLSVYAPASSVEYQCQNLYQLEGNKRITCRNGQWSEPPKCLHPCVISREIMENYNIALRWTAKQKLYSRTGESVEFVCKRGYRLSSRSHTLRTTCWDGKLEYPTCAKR

Molecular target: C3b (UniProt P01024)
Test: ELISA, C3b immobilised, serial dilutions of hFH, anti-FH detection

- binding: binds
Substance: human plasma derived Factor H (hFH) (from UniProt P08603 19-1231)
